Patent publication US20240317873A1 (CITY OF HOPE, published 2024)
Results are given in words; binding and its absence hold for the method and conditions named. Some results given as binding are weak or reduced against the parent protein; the word gives no strength.

B1: mcHVEM5 IgG (clone 5) (antibody, V domains shown)
VH: DVQLVESGGGLVQPGGSRKLSCAASGFTFSSSGMQWVRQAPEKGLEWVAYISSGSSTIYYADTVKGRFTISRDNPKNTLFLQMTSLRSEDTAMYYCAKNRGYGNYAYAMDYWGQGTSVTVSS
VL: DIVMTQSQKFMSTSVGDRVSVTCKASQNVDTYVAWYQQKPGQSPKALIYSASYRYSGVPDRFTGSGSGTDFTLTISNVQSEDLAEYFCQQYNNYPLTFGAGTKLNLKR
B2: mcHVEM13 IgG (clone 13) (antibody, V domains shown)
VH: QIQLVQSGPELKKPGETVKISCKASGYILTNYGMNWVKQAPGKGLKWMGWINTYTGEPTYADAFKGRFAFSLETSASTAYLQINNLKNEDTATYFCARGYGNHWYFDYWGQGTSVTVSS
VL: QIVLTQSPAILSASPGEKVTMTCSASSSVSYMHWYQRKSGTSPKRWIYDTSKLASGVPARFSGSGSGTSYSLTISSMEAEDAATYYCQQWTSDPLTFGAGTKLELKR
notes: Murine chimeric IgG; The constant region of the tested IgG is not spelled out; Metal-conjugated in mass cytometry; also called anti-HVEM13; aHVEM13
B3: anti-HVEM antibody clone 17 (antibody, human IgG1, kappa, V domains shown)
VH: QIQLVQSGPELKKPGEPVKISCRASGYTLTNFGMNWVKQAPGKGLKWMGWINTYTGEPTYADDFKGRFAFSLETSASTAYLQINNLKNEDTATYFCARSFYGNEHYWGQGTSVTVSS
VL: QIVLTQSPAIMSASPGEKVTLTCSASSSVSSSYLFWYQQKPGSSPKLWIYSTSNLASGVPARFSGHGSGTSYSLTISSMEAEDAASYFCHQWSSYPYTFGGGTKLEIKR
notes: also called HVEM17; HVEM-17
B4: anti-HVEM antibody clone 22 (antibody, human IgG1, kappa, V domains shown)
VH: QVQLQQSGAELVRPGASVTLSCKTSGYTFIHYEIHWVKQSPVHGLEWIGAIDPETGGTADNQKFKDKVTLTADKSSNTAYMDLRSLTSEDSAVYYCTRGDWVFAYWGQGTLVTVSA
VL: DVVMTQTPLSLPVSLGDQASISCRSSQSPLHSNGNTYLDWYLQKPGQSPKLLIYKVSNRFSGVPDRFSGSGSGTDFTLKISRVEAEDLGIYFCSQTTHVPPTFGGGTKLEIKR
notes: also called HVEM22; HVEM-22

Experiments:
[1] = target: cynomolgus monkey HVEM on PBMCs (cynomolgus monkey); assay: mass cytometry (CyTOF), NK cells gated in total cynomolgus monkey PBMCs
[2] = target: cynomolgus monkey HVEM on PBMCs (cynomolgus monkey); assay: mass cytometry (CyTOF), metal-conjugated antibody on cynomolgus PBMCs
[3] = target: cynomolgus monkey HVEM on PBMCs (cynomolgus monkey); assay: mass cytometry (CyTOF), CD14 cells gated in total cynomolgus monkey PBMCs
[4] = target: cynomolgus monkey HVEM on PBMCs (cynomolgus monkey); assay: mass cytometry (CyTOF) with 166Er-conjugated antibody on cynomolgus monkey total PBMCs, gated on B, NK, monocytes, CD4 T and CD8 T cells; no negative control antibody shown
[5] = target: cynomolgus monkey HVEM on PBMCs (cynomolgus monkey); assay: mass cytometry (CyTOF), 166Er-conjugated antibody on cynomolgus PBMCs

Binder	binding [1]	binding [2]	binding [3]	binding [4]	binding [5]
B1	binds	binds	binds	–	–
B2	binds	binds	binds	–	–
B3	–	–	–	binds	binds
B4	–	–	–	binds	binds
